Reference: patent publication US6800286
These are yes or no findings as the source states them, for the method shown. Some binding calls cover weakened binding; strength is not graded here.

Amino acid sequences for entries named in this document (tags omitted). A change or cut given only in a name is not applied to a line headed by its entry. Residues count along the entry.
UniProt P16092, residues 22-822: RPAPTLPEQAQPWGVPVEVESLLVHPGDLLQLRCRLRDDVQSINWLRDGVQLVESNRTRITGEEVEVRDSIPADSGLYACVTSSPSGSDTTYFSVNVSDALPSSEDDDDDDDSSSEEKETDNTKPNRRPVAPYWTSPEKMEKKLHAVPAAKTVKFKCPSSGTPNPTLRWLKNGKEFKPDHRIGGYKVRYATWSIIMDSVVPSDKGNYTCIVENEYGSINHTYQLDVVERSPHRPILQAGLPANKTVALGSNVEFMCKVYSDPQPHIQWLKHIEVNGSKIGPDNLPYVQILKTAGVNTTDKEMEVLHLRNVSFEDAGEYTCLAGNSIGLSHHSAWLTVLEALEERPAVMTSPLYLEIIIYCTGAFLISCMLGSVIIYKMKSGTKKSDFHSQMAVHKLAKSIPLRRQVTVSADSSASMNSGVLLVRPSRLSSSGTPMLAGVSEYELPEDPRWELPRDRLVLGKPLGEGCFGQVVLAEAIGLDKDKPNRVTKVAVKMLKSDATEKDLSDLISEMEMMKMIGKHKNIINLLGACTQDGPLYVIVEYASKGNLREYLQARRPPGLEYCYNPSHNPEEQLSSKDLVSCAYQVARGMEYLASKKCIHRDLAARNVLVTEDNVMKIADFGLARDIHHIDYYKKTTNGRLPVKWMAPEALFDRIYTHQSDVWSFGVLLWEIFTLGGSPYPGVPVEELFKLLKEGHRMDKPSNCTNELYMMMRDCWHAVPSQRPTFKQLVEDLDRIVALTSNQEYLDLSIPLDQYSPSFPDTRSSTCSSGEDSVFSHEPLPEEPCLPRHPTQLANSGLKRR
UniProt P09038: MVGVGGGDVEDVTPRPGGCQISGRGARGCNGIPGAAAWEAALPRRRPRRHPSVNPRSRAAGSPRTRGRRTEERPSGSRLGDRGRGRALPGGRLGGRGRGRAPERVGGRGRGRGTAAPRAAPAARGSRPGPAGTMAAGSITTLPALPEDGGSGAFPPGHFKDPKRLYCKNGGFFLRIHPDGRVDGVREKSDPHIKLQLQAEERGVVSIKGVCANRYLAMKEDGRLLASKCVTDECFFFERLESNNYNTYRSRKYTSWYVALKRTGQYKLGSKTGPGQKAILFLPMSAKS

How the values were obtained:
[1] = target: fibroblast growth factor receptor 1 (FGFR1) present on MM14 cells (mouse) (UniProt P16092); assay: Summary of the MM14 cell surface binding and crosslinking experiment
[2] = target: fibroblast growth factor receptor 1 (FGFR1) present on MM14 cells (mouse) (UniProt P16092); assay: 125I-labeled ligand (20 pM) bound at 4 C to intact MM14 cells, DSS crosslinking, SDS-PAGE and autoradiography; data not shown
wild type FGF-2 (human) = wild type FGF-2 (human) (UniProt P09038); assay: About 2 femtomole of 125I-labeled wild type FGF-2 mixed with varying amounts of unlabeled wild type FGF-2, DSS crosslinking in solution, SDS-PAGE and autoradiography; data not shown

Measured: binding

wild type FGF-2 (from UniProt P09038 143-288) (ligand)
binds: all assays above
